Measurements as given in patent publication US20250127799A1 (priority 2023, published 2025).

Test: general procedure: peptide synthesis; EDC/NHS (activation of the peptide carboxyl group for conjugation)
Settings: for conjugation yield: conjugation step; for step yield: late stage modification step

Substance | conjugation yield (run 1) | step yield (run 1) | step yield (run 2) | conjugation yield
AcCPIKGAIWL | 84% | 76% | 82% | –
AcCPFGFLGIAL | – | – | – | 38%
